Results reported in paper doi:10.1101/2020.06.06.138156 (bioRxiv, 2020).
Read-outs that look alike come from different tables or passages of the source. These are yes or no findings as the source states them, for the method shown. Binding seen in cells or lysates may run through a third protein. These calls come from enrichment with a bait or labelling near it, and not all partners need be listed. Each block holds one molecule with its values, some of them ahead of it.

Sequences of proteins named here, by UniProt entry; tags and fusion partners are left off.
UniProt P26599: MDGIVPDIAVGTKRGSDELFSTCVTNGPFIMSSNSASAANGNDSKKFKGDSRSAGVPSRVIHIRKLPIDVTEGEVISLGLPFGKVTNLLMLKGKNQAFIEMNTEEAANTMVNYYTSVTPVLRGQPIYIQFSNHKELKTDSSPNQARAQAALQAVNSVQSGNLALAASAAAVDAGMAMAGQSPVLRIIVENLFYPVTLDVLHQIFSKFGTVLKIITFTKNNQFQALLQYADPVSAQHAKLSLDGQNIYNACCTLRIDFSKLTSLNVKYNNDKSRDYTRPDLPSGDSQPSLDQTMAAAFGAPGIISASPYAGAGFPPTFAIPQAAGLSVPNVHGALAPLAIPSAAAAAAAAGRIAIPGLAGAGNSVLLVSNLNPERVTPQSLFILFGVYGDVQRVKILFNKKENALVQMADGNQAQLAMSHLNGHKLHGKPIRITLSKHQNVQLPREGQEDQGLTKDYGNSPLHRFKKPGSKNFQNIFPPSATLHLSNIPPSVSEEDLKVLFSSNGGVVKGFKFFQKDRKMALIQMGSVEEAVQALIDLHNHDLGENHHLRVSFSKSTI
UniProt O75494: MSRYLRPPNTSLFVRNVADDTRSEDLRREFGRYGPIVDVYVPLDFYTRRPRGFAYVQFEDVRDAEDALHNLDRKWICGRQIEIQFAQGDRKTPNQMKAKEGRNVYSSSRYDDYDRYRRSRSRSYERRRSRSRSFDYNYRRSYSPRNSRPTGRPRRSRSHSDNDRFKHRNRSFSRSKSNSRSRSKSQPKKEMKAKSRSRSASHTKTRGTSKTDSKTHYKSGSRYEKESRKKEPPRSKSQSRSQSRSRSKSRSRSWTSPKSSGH
UniProt P11940: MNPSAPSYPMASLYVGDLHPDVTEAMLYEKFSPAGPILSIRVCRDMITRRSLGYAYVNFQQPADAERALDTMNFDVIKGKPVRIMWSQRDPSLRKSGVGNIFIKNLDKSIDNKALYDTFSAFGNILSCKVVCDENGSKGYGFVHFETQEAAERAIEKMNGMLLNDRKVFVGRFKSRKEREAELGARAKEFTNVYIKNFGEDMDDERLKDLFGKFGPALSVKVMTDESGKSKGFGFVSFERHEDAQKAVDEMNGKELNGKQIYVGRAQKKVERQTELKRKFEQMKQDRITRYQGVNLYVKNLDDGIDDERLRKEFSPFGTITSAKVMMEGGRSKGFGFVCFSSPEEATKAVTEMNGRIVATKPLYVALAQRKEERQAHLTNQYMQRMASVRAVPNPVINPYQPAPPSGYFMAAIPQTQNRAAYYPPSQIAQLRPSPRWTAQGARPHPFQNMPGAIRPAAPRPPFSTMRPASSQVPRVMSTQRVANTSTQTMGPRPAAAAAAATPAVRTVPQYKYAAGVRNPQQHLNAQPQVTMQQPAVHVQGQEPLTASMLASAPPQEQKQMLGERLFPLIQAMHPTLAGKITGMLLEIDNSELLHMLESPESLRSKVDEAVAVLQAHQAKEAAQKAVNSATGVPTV

What was measured:
Experiment in all cases: affinity purification with mass spectrometry
[1] = biological target: T1, Halo-SETD2C (1404-2564) (human) (UniProt Q9BYW2)
T1 sequence: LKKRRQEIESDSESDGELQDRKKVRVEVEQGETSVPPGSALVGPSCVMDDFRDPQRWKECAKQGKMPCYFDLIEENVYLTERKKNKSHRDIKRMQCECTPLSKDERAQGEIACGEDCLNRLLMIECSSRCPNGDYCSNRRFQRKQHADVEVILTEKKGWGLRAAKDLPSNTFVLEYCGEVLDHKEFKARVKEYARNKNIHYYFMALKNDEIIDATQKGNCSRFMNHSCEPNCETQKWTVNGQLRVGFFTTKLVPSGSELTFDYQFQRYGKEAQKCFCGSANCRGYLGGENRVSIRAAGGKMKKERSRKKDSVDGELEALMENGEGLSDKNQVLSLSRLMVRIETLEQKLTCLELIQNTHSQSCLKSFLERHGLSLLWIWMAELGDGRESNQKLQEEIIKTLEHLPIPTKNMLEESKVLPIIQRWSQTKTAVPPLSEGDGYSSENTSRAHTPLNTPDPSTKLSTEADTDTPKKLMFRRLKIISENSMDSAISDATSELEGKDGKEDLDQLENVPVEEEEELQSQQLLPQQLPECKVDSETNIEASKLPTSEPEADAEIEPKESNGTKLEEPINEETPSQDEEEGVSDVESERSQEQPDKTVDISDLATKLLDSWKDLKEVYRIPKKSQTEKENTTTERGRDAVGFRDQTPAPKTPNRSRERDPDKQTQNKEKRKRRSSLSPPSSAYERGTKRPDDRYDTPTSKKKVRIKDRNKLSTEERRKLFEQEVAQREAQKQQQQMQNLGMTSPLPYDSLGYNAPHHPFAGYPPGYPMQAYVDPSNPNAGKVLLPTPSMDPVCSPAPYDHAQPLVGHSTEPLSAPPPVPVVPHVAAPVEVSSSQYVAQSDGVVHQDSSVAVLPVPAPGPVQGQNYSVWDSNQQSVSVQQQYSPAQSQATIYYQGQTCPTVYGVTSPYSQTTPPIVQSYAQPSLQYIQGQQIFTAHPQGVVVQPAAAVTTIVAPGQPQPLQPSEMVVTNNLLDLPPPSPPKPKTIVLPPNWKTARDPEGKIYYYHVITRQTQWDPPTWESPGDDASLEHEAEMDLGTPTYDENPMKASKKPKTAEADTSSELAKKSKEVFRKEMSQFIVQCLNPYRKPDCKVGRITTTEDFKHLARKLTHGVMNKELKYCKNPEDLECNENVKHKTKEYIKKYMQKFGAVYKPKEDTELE

[2] = biological target: T1, Halo-SETD2C (1404-2564) (human); remark: listed apart in the source
[3] = biological target: T2, Halo-hnRNP L 162-321 (human) (UniProt P14866)
T2 sequence: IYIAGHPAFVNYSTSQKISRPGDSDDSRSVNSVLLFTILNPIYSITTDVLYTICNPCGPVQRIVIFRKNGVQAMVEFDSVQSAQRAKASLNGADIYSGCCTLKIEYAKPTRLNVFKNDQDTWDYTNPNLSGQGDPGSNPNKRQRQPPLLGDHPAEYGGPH

Molecule: polypyrimidine tract binding protein 1 (endogenous) (from UniProt P26599 1-557)
binding [1]: binds

B1: serine/arginine-rich splicing factor 3 (endogenous) (protein, UniProt P84103 1-164)
chain: MHRDSCPLDCKVYVGNLGNNGNKTELERAFGYYGPLRSVWVARNPPGFAFVEFEDPRDAADAVRELDGRTLCGCRVRVELSNGEKRSRNRGPPPSWGRRPRDDYRRRSPPPRRRSPRRRSFSRSRSRSLSRDRRRERSLSRERNHKPSRSFSRSRSRSRSNERK
binding [2]: binds

B2: Mediator complex subunit Med23 (endogenous) (protein, UniProt Q9ULK4 1-1368)
chain: METQLQSIFEEVVKTEVIEEAFPGMFMDTPEDEKTKLISCLGAFRQFWGGLSQESHEQCIQWIVKFIHGQHSPKRISFLYDCLAMAVETGLLPPRLVCESLINSDTLEWERTQLWALTFKLVRKIIGGVDYKGVRDLLKVILEKILTIPNTVSSAVVQQLLAAREVIAYILERNACLLPAYFAVTEIRKLYPEGKLPHWLLGNLVSDFVDTFRPTARINSICGRCSLLPVVNNSGAICNSWKLDPATLRFPLKGLLPYDKDLFEPQTALLRYVLEQPYSRDMVCNMLGLNKQHKQRCPVLEDQLVDLVVYAMERSETEEKFDDGGTSQLLWQHLSSQLIFFVLFQFASFPHMVLSLHQKLAGRGLIKGRDHLMWVLLQFISGSIQKNALADFLPVMKLFDLLYPEKEYIPVPDINKPQSTHAFAMTCIWIHLNRKAQNDNSKLQIPIPHSLRLHHEFLQQSLRNKSLQMNDYKIALLCNAYSTNSECFTLPMGALVETIYGNGIMRIPLPGTNCMASGSITPLPMNLLDSLTVHAKMSLIHSIATRVIKLAHAKSSVALAPALVETYSRLLVYMEIESLGIKGFISQLLPTVFKSHAWGILHTLLEMFSYRMHHIQPHYRVQLLSHLHTLAAVAQTNQNQLHLCVESTALRLITALGSSEVQPQFTRFLSDPKTVLSAESEELNRALILTLARATHVTDFFTGSDSIQGTWCKDILQTIMSFTPHNWASHTLSCFPGPLQAFFKQNNVPQESRFNLKKNVEEEYRKWKSMSNENDIITHFSMQGSPPLFLCLLWKMLLETDHINQIGYRVLERIGARALVAHVRTFADFLVYEFSTSAGGQQLNKCIEILNDMVWKYNIVTLDRLILCLAMRSHEGNEAQVCYFIIQLLLLKPNDFRNRVSDFVKENSPEHWLQNDWHTKHMNYHKKYPEKLYFEGLAEQVDPPVQIQSPYLPIYFGNVCLRFLPVFDIVIHRFLELLPVSKSLETLLDHLGGLYKFHDRPVTYLYNTLHYYEMHLRDRAFLKRKLVHAIIGSLKDNRPQGWCLSDTYLKCAMNAREENPWVPDDTYYCRLIGRLVDTMAGKSPGPFPNCDWRFNEFPNPAAHALHVTCVELMALAVSGKEVGNALLNVVLKSQPLVPRENITAWMNAIGLIITALPEPYWIVLHDRIVSVISSPSLTSETEWVGYPFRLFDFTACHQSYSEMSCSYTLALAHAVWHHSSIGQLSLIPKFLTEVLLPIVKTEFQLLYVYHLVGPFLQRFQQERTRCMIEIGVAFYDMLLNVDQCSTHLNYMDPICDFLYHMKYMFTGDSVKEQVEKIICNLKPALKLRLRFITHISKMEPAAVPPQAMNSGSPAPQSNQVPVSLPVTQ
binding [3]: binds

Second part, the molecule after the results:

binding [1]: binds
Molecule: serine/arginine-rich splicing factor 10 (endogenous) (from UniProt O75494 1-262)

binding [1]: binds
Molecule: polyadenylate-binding protein 1 (endogenous) (from UniProt P11940 1-636)
